Our source for the z-score values is PubChem BioAssay AID1508600 (Functional Genomics Laboratory (NCATS/FGL), 2020).

Screen size: about 53,000 sequences; about 3,700 (7%) were called active.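 Rule for the calls: active = gene knockdowns whose robust z-score for IL-1 alpha signal is at least 2 or at most -2, so actives lie on both sides; inactive = the rest.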 The list shows a part of the results.

This experiment is described as follows: Components of the Cytosolic LPS Sensing Pathway: Gene Identification via Genome-wide siRNA Screen.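 Note: robust z of the log signal after scaling to non-targeting control siRNA wells of the plate.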 Particulars: RAW264.7 macrophages, IL-1a HTRF, actives lie on both sides, screened at 100 nM (by protocol), cells primed 5 h with Pam3CSK4 first. In a few lines: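 Using IL-1a HTRF as read-out, the screen measured release from RAW264.7 cells after 48h siRNA knockdown (100 nM), 5 h Pam3CSK4 priming and 24 h cytosolic LipidA. Values were expressed relative to negative-control wells as robust z-scores.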
For GGAAAGAAGAAGAAAUGACTT against Srp19, the z-score was inactive: 0.446.
As for CCGAUGGCUUCAUGAUUCATT against Gulo, the figure is inactive: -0.344; as for GGACGACUUAAAGCUCUUUTT against Olfr1220, inactive: -0.169.
Under AAUUGAAGACUGUAAAUACTT against Sst stands inactive: 1.83.
As for GGACUACGAAGAAAUCACUTT against Aicda, the figure is inactive: -1.16.
Take GCCACUUGUGCUAAGCUGUTT against Ager: the z-score was inactive: -0.768.
Under CCAAACAGUUGGAACUGUGTT against Rusc1 stands inactive: -0.134; under GGAAUGCAAGGAAAUGAAATT against Obp1a, inactive: 0.93; under CCUAUGACACAAGUGAUACTT against Trdv2-2, inactive: -1.63.
Under GGCCAGACCUUUGUGAAUGTT against Ctse stands inactive: -1.96; under GGAAAAGUACAAAAGUCAGTT against Kcne2, inactive: -1.09.
As for GGUGUCGAAGAUCACGUCATT against Abhd17a, the figure is inactive: 0.169; as for GCAAGAUCCCGACACAUACTT against Tead4, active: -2.22; as for GGCCGGUGCCUUUUAUUCUTT against Spib, active: 3.26.
Regarding GGGCAUUUGGCCUUUCUCATT against Cpsf4, the z-score was inactive: -0.905.
Under AUAACCCAGUUCAUCCUCCTT against Olfr1431 stands inactive: 0.0164.
With GGAAGAAACUAACCACAACTT against Ikzf1, the z-score is inactive: 0.906.
As for GGAAAAGCAACCAUGUUCUTT against Spon1, the figure is inactive: -0.752; as for GGAUAACCAUUCAGUAUUATT against Polq, inactive: 0.0331.
As for GGACGUGUGCUCCUUCUUATT against Samhd1, the figure is inactive: 1.62; as for GGCAUUCUCAAGAAAAAGUTT against Nuak2, inactive: 1.25; as for GGAUGGACCUGACUUUCAATT against Txn2, inactive: 0.366.
As for GCCGCCUCAAACUGGAUAATT against Hdac7, the figure is inactive: -1.6.
Take GCCUCAGUCCGAUAAAGAGTT against Emcn: the z-score was inactive: -0.662.
In the case of CGAAGUCCAAAGCCCAGUATT against Klhdc8b, the z-score was inactive: 0.87.
As for GCCCGGCGAUCUGAAUGUATT against Fchsd2, the figure is inactive: -0.149.
Under GCCAGCUUCCGUGUUUGUUTT against Nfkb1 stands inactive: 1.1.
Turning to CCACUCUCUAGUCCUCAACTT against Svs3a, the z-score is inactive: 0.189.
As for GGGCAGGGAUGUUUAGAUCTT against Homer2, the figure is inactive: 0.499.
As to CGAAGCACAUAAACUAAAGTT against Ero1a, the z-score was inactive: 0.629.
As for GCCCACUUCCGAAUCAAUATT against Mrpl52, the figure is inactive: -0.793; as for CCUAUGCUAUAGCAGUCUCTT against Oaz1, inactive: -0.482.
As for GCUACGAACUAAUUGAAAATT against Atp8a1, the figure is inactive: 0.0292; as for GGUACCAUAUCUGUGAACATT against Nrxn3, inactive: -1.25.
Under GGCUAGCCAUCCAAAAAGATT against Pcare stands inactive: 1.07; under GGACCUGAAGAAGCAUGGUTT against Mb, inactive: -1.1.
In the case of GGAUAACCUCCUUACCGUCTT against Eif1ad, the z-score is inactive: -0.738.
As for CCUAAGGUAGUUUUACCCUTT against Shbg, the figure is inactive: 0.428; as for GGUCAAUUCUUUGUGAUGATT against Usf1, inactive: -0.609.
Take GCCUUCUUGAACUGAAAGATT against Spc24: the z-score was active: -2.04.
Consider GGCCAAACUUAAUCAACCUTT against Larp7, for which the z-score is inactive: -0.611.
On to GGAUCUUUGCCAAGAAAUUTT against Fmo2, for which the z-score was inactive: -0.541.
As for GGUCAAAUGAAAGCUCAAGTT against Ppm1d, the figure is inactive: -1.66.
As for GGCAUACCAAAGGUAUGAUTT against Serpine1, the figure is inactive: -0.885; as for GGCCUCAAGAAUGUAACAGTT against Psmf1, inactive: -1.07; as for GGUCAAAGCCUUUCAUUAUTT against Arhgap45, inactive: 0.905.
As for GCUGAAGUAGGGUUUAUUATT against Gdap10, the figure is inactive: 0.786; as for GCAAGACCCUUCGAGUGAATT against Nkd2, inactive: -1.2.
Regarding GGCCUUUUACAAUGAACAUTT against Itgax, the z-score was inactive: -0.43.
Under GCAUCGAUCUUUCACCUGUTT against Htr4 stands inactive: -0.263; under CCUCUUAUCUCACAUGCUATT against Ica1, inactive: -0.0733; under GGCUAUCAUCAAGAAGGCUTT against Utp6, inactive: 0.249.
Turning to GGUUGACACUGUUGCUUAUTT against Ofcc1, the z-score was inactive: -0.251.
As for GGACACAGAUCUGAUGACCTT against Nkain3, the figure is inactive: -1.41; as for GGUGCACUCGUACUUGACUTT against Mgat4b, inactive: -0.035; as for CGAUUUUACCAACCGCUGCTT against Chtf18, inactive: 0.702.
As to GGAUUUCUAGUCUCCUCUUTT against Slc25a11, the z-score was inactive: -1.32.
As for GGUACGACAAGGAUUGGAGTT against Arhgap18, the figure is inactive: 0.773; as for GCAACAUGUAGGCAACAUCTT against Tmx2, inactive: -0.179.
As for GGGCACAGGCAACAUGCUUTT against Awat2, the figure is inactive: 0.0486.
Under GGAGAACACAAAGUUAUACTT against Prpf39 stands inactive: 0.621; under GGCCAUAUGUCAAGAAGUUTT against Svs4, inactive: -1.24; under GGAAAAACUCUUCUUCACGTT against Nphs1, inactive: -0.0272.
Take GGGCAGAUUGACUUUUUUGTT against Rragd: the z-score is inactive: 0.321.
As for GGACAACACUGUCAAUCAUTT against Olfr922, the figure is active: -2.39; as for GGUUUUACAUUCUGUGUUUTT against Spata9, inactive: -0.898.
Under CCGUUUAUUUAUCAGCUGGTT against Spsb4 stands inactive: -1.18; under CCAGAAACACUAGUAAAGGTT against Dppa3, inactive: -0.0972; under GGAUACAGAGUAUUUCAAGTT against Rtkn, inactive: -1.01.
As for GCGAUGAGAUUGUUGCUGUTT against Ttc33, the figure is active: 2.32.
As to GCCAAAGUACUCUUACAAGTT against Tfip11, the z-score was inactive: -1.49.
Under GGCACUAAGACCUGUUUUGTT against Msx2 stands inactive: 0.83; under GGCUCUGAGUACCUGUGGATT against Olfr646, inactive: -0.234.
Under GGAUCUGACAGCUCAUUUUTT against Casp7 stands inactive: 1.01; under GGGAAAACACAGAAUGCUATT against Mpc1, inactive: -0.565; under GGAUGAUAUGGAUUCACAATT against Clgn, inactive: -1.82.
Regarding GGUGUCAACUUUAUUCUUUTT against Rab1a, the z-score was inactive: 0.813.
Take GGACUUGGACCAAUAGAAGTT against Tmem239: the z-score was inactive: -1.29.
For the sequence CCAAAAAGAUUUGGAUCUCTT against Nr2f6, the z-score was inactive: 0.142.
Consider GCCUGUGUGCUGUUGUGUUTT against Krtap5-1, for which the z-score was inactive: 1.33.
As for GGUCACCUACUGCUCAAACTT against Dnajc3, the figure is inactive: -0.649; as for CCUCGAGUGGUUGGAUAAGTT against Vps25, active: -2; as for GGUGGUGCAGGGAUUACAATT against Rsad2, inactive: 0.806.
Under GCUGUAAUGCUAAUGACAUTT against Gpr22 stands inactive: 1.23; under GGACCAAAGUUCUAAGUUUTT against Antxrl, inactive: 1.47; under GAAAGAAUCUAGAAAAGUGTT against Lce1d, inactive: 0.912.
Under GGUCAUCUCCUAUGGAAAUTT against Fam118b stands inactive: 0.819; under GGCUUCUAAAAAUUUCACATT against Tmprss11e, inactive: 0.221.
In the case of GGAUUUGACAGGUUUGGAATT against Gnptab, the z-score was inactive: 0.185.
As for CGAGGAUUACAGAGGAAACTT against Dut, the z-score is inactive: 0.717.
As for GGCCCAAUCUCAAGAGGAUTT against Tnfaip8l3, the figure is inactive: 0.285.
As for GGAAAAGGUGACCUGUCUCTT against Slc44a1, the figure is inactive: -1.77.
As for GGGUAUGCAGAAGGGAACATT against Nrap, the figure is inactive: 0.424; as for “GGAAGAAGCCACAAUCAACTT against 1110032A03Rik”, inactive: 1.79; as for GCUUGUUAACCGACUAUAUTT against Fez2, inactive: -1.36.
Take GGAUUUUCAAUGCUGUAUGTT against Prkag2: the z-score was inactive: -0.11.
Under GGGACAAGGCCUCGAUAUUTT against Ggps1 stands inactive: 0.958.
Turning to GAUUGGAGUGAAGAAACGUTT against Fkbp2, the z-score is inactive: -1.28.
Under GGCUAUGGCUGAUAAGCAUTT against Gtsf2 stands inactive: 0.407; under GGUACAGUUAUUGAAGUGATT against Nsa2, inactive: -1.06.
Under GCCACAACAACUUGAGCAGTT against Amigo1 stands active: 2.36; under GGCUUUAAGGUGUUUUUCATT against Slc25a48, inactive: -0.0754; under CGACCACAGCAUAUAUGUUTT against Mapkbp1, inactive: 0.635.
As for GGGUGCAUAAGCAAGCUGUTT against Nkiras2, the figure is inactive: -0.992.
CCAGCGUGAUAGCUAAGAATT against Trmt2b: the z-score is inactive: 1.97.
Under CCACUUUGACAGGAGGAAGTT against Actn2 stands inactive: 0.721; under GAUCAAAAGCCUUCAACACTT against Olfr910, inactive: -1.3.
